Record: PubChem BioAssay AID1259308 (NCATS, 2017)

- Test: 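Knock-downs that increase output of a recombinant reporter protein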 (primary screen)
- Cells: human HEK293 embryonic kidney cells stably expressing firefly luciferase (HEK-CMV-Luc2-Hygro)
- Reagents: single siRNA against human genes, 0.8 pmol siRNA per well
- Time to read-out: 72 h
- Detection: 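Reporter luminescence and viable-cell signal on separate replicate plates, given as percent of non-targeting control and median/MAD z-scores, plus per-cell luciferase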
- Reading the numbers: total luciferase, z-score and total luciferase, % of control: higher = more reporter protein produced; luciferase per cell, z-score: higher = more reporter output per viable cell; viable cells, % of control: higher = more viable cells
- Call rule: 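An siRNA counts as active if its total luciferase robust z-score exceeds 3; genes with two or more such siRNAs out of three were retested with fresh siRNAs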
- Calls: active = raised luciferase; inactive = no rise
Shown is a random part of about 59,000 reagents. About 1,510 of all reagents (2.6%) count as active. 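Calls use total luciferase alone and ignore viability, so some active siRNAs may act by altering cell number.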 Entries without a mark were called inactive. Reagents against one gene are numbered here.

gene knocked down | reagent no. | total luciferase, z-score | total luciferase, % of control | luciferase per cell, z-score | viable cells, % of control
ARL5A | 1 | -0.802 | 65.9 | -0.774 | 90.3
ARL5A | 2 | -0.525 | 71.4 | -0.197 | 84.1
ARL5A | 3 | -0.121 | 79.5 | -0.575 | 103
CLCN6 | 1 | 0.117 | 84.2 | -0.705 | 113
CLCN6 | 2 | -0.0334 | 81.2 | -0.17 | 94.9
CLCN6 | 3 | -0.419 | 73.6 | -0.271 | 88.3
COLGALT1 | 1 | 0.291 | 87.7 | 0.435 | 87.4
COLGALT1 | 2 | -0.515 | 71.6 | -0.813 | 99.2
COLGALT1 | 3 | -0.348 | 75 | -1.03 | 110
GPR146 | 1 | 0.0193 | 82.3 | 0.392 | 82.9
GPR146 | 2 | -1.61 | 49.8 | -1.31 | 78.6
GPR146 | 3 | 0.727 | 96.3 | 1.57 | 71.3
ZNF14 | 1 | 0.133 | 84.5 | 0.248 | 88.5
ZNF14 | 2 | -0.677 | 68.4 | 0.769 | 62.4
ZNF14 | 3 | 1.3 | 108 | 0.753 | 98.7
SPICE1 | 1 | 0.401 | 89.9 | 0.863 | 80
SPICE1 | 2 | -0.476 | 72.4 | -0.345 | 88.6
SPICE1 | 3 | -0.0895 | 80.1 | -0.0436 | 90.5
FAM177B | 1 | 0.368 | 89.2 | 0.29 | 92.3
FAM177B | 2 | 2.47 | 131 | 3.09 | 64.9
FAM177B | 3 | -1.1 | 59.9 | -1.03 | 87.7
JTB | 1 | 0.494 | 91.7 | 0.498 | 89.9
JTB | 2 | -0.832 | 65.3 | -0.741 | 88.8
JTB | 3 | -0.0722 | 80.4 | -0.0946 | 92.2
DEFB124 | 1 | -0.628 | 69.4 | -0.626 | 91.5
DEFB124 | 2 | 0.254 | 86.9 | -0.212 | 103
DEFB124 | 3 | -0.573 | 70.5 | -0.0577 | 80
HAND1 | 1 | -0.074 | 80.4 | 0.446 | 79.9
HAND1 | 2 | 0.795 | 97.7 | 1.07 | 82.5
HAND1 | 3 | 0.131 | 84.5 | -0.588 | 110
PCBD2 | 1 | 0.472 | 91.3 | 0.285 | 94.6
PCBD2 | 2 | 0.371 | 89.3 | 1.13 | 74.2
PCBD2 | 3 | -0.756 | 66.8 | 0.664 | 62.7
ORM1 | 1 | -1.23 | 57.5 | -0.617 | 75.6
ORM1 | 2 | 0.467 | 91.2 | -0.118 | 105
ORM1 | 3 | -0.647 | 69 | -1.08 | 102
FCHO1 | 1 | 0.447 | 90.8 | -0.206 | 107
FCHO1 | 2 | -0.621 | 69.5 | -1 | 101
FCHO1 | 3 | 0.236 | 86.6 | 0.113 | 93.9
BPI | 1 | -0.464 | 72.7 | -0.704 | 97.7
BPI | 2 | 0.521 | 92.2 | 0.458 | 91.4
BPI | 3 | -0.872 | 64.5 | -0.0439 | 73
TRIR | 1 | -0.294 | 76 | -0.551 | 98.2
TRIR | 2 | 3.15 (active) | 145 | 1.82 | 100
TRIR | 3 | -0.039 | 81.1 | -0.0714 | 92.4
ALG13 | 1 | 2.05 | 123 | 1.4 | 94.8
ALG13 | 2 | 1.69 | 115 | 2.72 | 63
ALG13 | 3 | -0.668 | 68.6 | -0.367 | 84.4
ALG13 | 4 | -0.17 | 78.5 | 1.25 | 63
ALG13 | 5 | 0.769 | 97.2 | 0.457 | 96.3
ALG13 | 6 | -0.634 | 69.3 | -1.14 | 104
ALG13 | 7 | -0.685 | 68.3 | -0.614 | 89.7
ALG13 | 8 | 1.28 | 107 | 0.67 | 101
ALG13 | 9 | -0.336 | 75.2 | -0.654 | 99.8
TSC1 | 1 | -0.429 | 73.4 | 0.517 | 71.5
TSC1 | 2 | 0.646 | 94.7 | 0.208 | 100
TSC1 | 3 | -0.798 | 66 | 0.742 | 60.7
DDIAS | 1 | 0.781 | 97.4 | 0.979 | 84.1
DDIAS | 2 | 0.202 | 85.9 | -0.0489 | 97.2
DDIAS | 3 | -1.68 | 48.5 | -0.751 | 66
SLC25A22 | 1 | -0.654 | 68.9 | -0.774 | 94.4
SLC25A22 | 2 | -1.66 | 48.8 | -0.773 | 66.8
SLC25A22 | 3 | -0.29 | 76.1 | -0.536 | 97.9
BCL2L1 | 1 | -0.607 | 69.8 | -0.769 | 95.5
BCL2L1 | 2 | 1.91 | 120 | 1.74 | 84.8
BCL2L1 | 3 | 0.365 | 89.1 | 0.316 | 91.7
LINC02499 | 1 | -1.67 | 48.7 | -0.57 | 63.3
LINC02499 | 2 | -0.524 | 71.5 | -0.47 | 90.4
LINC02499 | 3 | 0.0324 | 82.5 | -0.169 | 96.4
DNASE1 | 1 | 1.42 | 110 | 0.803 | 99.5
DNASE1 | 2 | -0.696 | 68 | -0.488 | 86.5
DNASE1 | 3 | 0.017 | 82.2 | -0.322 | 100
BPIFA1 | 1 | -0.407 | 73.8 | 0.198 | 78.3
BPIFA1 | 2 | -0.106 | 79.8 | 0.601 | 76.1
BPIFA1 | 3 | 0.179 | 85.4 | 0.425 | 85.4
